# Test results from US20250176599A1, “FLAVOR COMPOSITION AND FOOD AND BEVERAGE” (TAKASAGO INTERNATIONAL CORPORATION, priority 2021, published 2025).
# Experiments:
# [1] = Sensory evaluation of aqueous solution I containing (E)-2-nonenal 1 ppb: off-flavor intensity and masking component intensity; conditions: average score 0-4
# Protocol: (§1) In ion-exchanged water, each degradation component was added to achieve the concentrations listed in Table 1, and aqueous solutions I to VI containing these degradation components were prepared.
# (§2) For the aforementioned aqueous solutions containing degradation components, nootkatone was added at the concentrations listed in Table 2 to confirm the intensity of the off-flavor (masking effect) in each sample and the intensity of the masking component itself (the impact on the flavor of the food and/or beverage itself).
# (§3) The test was conducted as follows. Eight experienced panelists were selected to conduct a sensory evaluation. The intensity of the off-flavor of the aqueous solution containing the degradation components derived from unsaturated fatty acids, without added masking components, was set as “Evaluation: 4.” The ion-exchanged water free of any degradation components was set as “Evaluation: 0.” The intensity of the off-flavor (masking effect) of each sample was then relatively evaluated according to the following evaluation criteria.
# (§4) • Off-flavor is strongly sensed: 4 points • Off-flavor is sensed: 3 points • Off-flavor is slightly sensed: 2 points • Off-flavor is barely sensed: 1 point • Off-flavor is not sensed at all: 0 points
# (§5) Also, the intensity of the masking components (impact on the flavor of the food and/or beverage itself) was absolutely evaluated according to the following evaluation criteria.
# (§6) • Masking component is strongly sensed: 4 points • Masking component is sensed: 3 points • Masking component is slightly sensed: 2 points • Masking component is barely sensed: 1 point • Masking component is not sensed at all: 0 points
# [2] = Sensory evaluation of aqueous solution II containing (E)-2-octenal 10 ppb: off-flavor intensity and masking component intensity; conditions: average score 0-4
# Protocol: as §1, §2, §3, §4, §5, §6
# [3] = Sensory evaluation of aqueous solution IV containing 1,5-octadien-3-one 100 ppt: off-flavor intensity and masking component intensity; conditions: aqueous solution IV, 1,5-octadien-3-one 100 ppt, average score 0-4
# Protocol: as §1, §2, §3, §4, §5, §6
# [4] = Sensory evaluation of aqueous solution V containing 1-octen-3-ol 10 ppb: off-flavor intensity and masking component intensity; conditions: average score 0-4
# Protocol: as §1, §2, §3, §4, §5, §6
structure (smiles),measurement,setting,value
"O=C1CCCCCCCCCCCC(=O)OCCO1 [1,4-Dioxacycloheptadecan-5,17-Dione, 1,4-dioxacycloheptadecan-5,17-dione]",Masking Component Intensity,[1]; 0.001 ppt added,0.0 points
same,Masking Component Intensity,[1]; 0.01 ppt added,0.0 points
same,Masking Component Intensity,[1]; 0.1 ppt added,0.1 points
same,Masking Component Intensity,[1]; 1 ppb added,2.1 points
same,Masking Component Intensity,[1]; 1 ppt added,0.5 points
same,Masking Component Intensity,[1]; 10 ppb added,3.3 points
same,Masking Component Intensity,[1]; 10 ppt added,1.0 points
same,Masking Component Intensity,[1]; 100 ppb added,4.0 points
same,Masking Component Intensity,[1]; 100 ppt added,1.8 points
same,Masking Component Intensity,[2]; 0.001 ppt added,0.0 points
same,Masking Component Intensity,[2]; 0.01 ppt added,0.0 points
same,Masking Component Intensity,[2]; 0.1 ppt added,0.3 points
same,Masking Component Intensity,[2]; 1 ppb added,2.1 points
same,Masking Component Intensity,[2]; 1 ppt added,0.5 points
same,Masking Component Intensity,[2]; 10 ppb added,2.8 points
same,Masking Component Intensity,[2]; 10 ppt added,0.6 points
same,Masking Component Intensity,[2]; 100 ppb added,3.9 points
same,Masking Component Intensity,[2]; 100 ppt added,1.5 points
same,Masking Component Intensity,[3]; 0.001 ppt added,0.0 points
same,Masking Component Intensity,[3]; 0.01 ppt added,0.0 points
same,Masking Component Intensity,[3]; 0.1 ppt added,0.0 points
same,Masking Component Intensity,[3]; 1 ppb added,1.3 points
same,Masking Component Intensity,[3]; 1 ppt added,0.3 points
same,Masking Component Intensity,[3]; 10 ppb added,2.0 points
same,Masking Component Intensity,[3]; 10 ppt added,0.5 points
same,Masking Component Intensity,[3]; 100 ppb added,3.8 points
same,Masking Component Intensity,[3]; 100 ppt added,1.0 points
same,Masking Component Intensity,[4]; 0.001 ppt added,0.0 points
same,Masking Component Intensity,[4]; 0.01 ppt added,0.1 points
same,Masking Component Intensity,[4]; 0.1 ppt added,0.3 points
same,Masking Component Intensity,[4]; 1 ppb added,1.9 points
same,Masking Component Intensity,[4]; 1 ppt added,0.6 points
same,Masking Component Intensity,[4]; 10 ppb added,3.0 points
same,Masking Component Intensity,[4]; 10 ppt added,0.9 points
same,Masking Component Intensity,[4]; 100 ppb added,3.9 points
same,Masking Component Intensity,[4]; 100 ppt added,1.5 points
"CCCC(=O)C(C)=O [2,3-Hexanedione, 2,3-hexanedione]",Masking Component Intensity,[1]; 1 ppb added,0.4 points
same,Masking Component Intensity,[1]; 1 ppm added,3.3 points
same,Masking Component Intensity,[1]; 5 ppb added,0.8 points
same,Masking Component Intensity,[1]; 5 ppm added,3.5 points
same,Masking Component Intensity,[1]; 10 ppb added,1.3 points
same,Masking Component Intensity,[1]; 10 ppm added,3.8 points
same,Masking Component Intensity,[1]; 50 ppb added,1.6 points
same,Masking Component Intensity,[1]; 100 ppb added,2.0 points
same,Masking Component Intensity,[1]; 500 ppb added,2.5 points
same,Masking Component Intensity,[2]; 1 ppb added,0.5 points
same,Masking Component Intensity,[2]; 1 ppm added,2.8 points
same,Masking Component Intensity,[2]; 5 ppb added,1.0 points
same,Masking Component Intensity,[2]; 5 ppm added,3.5 points
same,Masking Component Intensity,[2]; 10 ppb added,1.3 points
same,Masking Component Intensity,[2]; 10 ppm added,3.8 points
same,Masking Component Intensity,[2]; 50 ppb added,1.8 points
same,Masking Component Intensity,[2]; 100 ppb added,2.1 points
same,Masking Component Intensity,[2]; 500 ppb added,2.3 points
same,Masking Component Intensity,[3]; 1 ppb added,0.1 points
same,Masking Component Intensity,[3]; 1 ppm added,3.1 points
same,Masking Component Intensity,[3]; 5 ppb added,0.4 points
same,Masking Component Intensity,[3]; 5 ppm added,3.6 points
same,Masking Component Intensity,[3]; 10 ppb added,0.9 points
same,Masking Component Intensity,[3]; 10 ppm added,4.0 points
same,Masking Component Intensity,[3]; 50 ppb added,1.1 points
same,Masking Component Intensity,[3]; 100 ppb added,1.6 points
same,Masking Component Intensity,[3]; 500 ppb added,2.4 points
same,Masking Component Intensity,[4]; 1 ppb added,0.4 points
same,Masking Component Intensity,[4]; 1 ppm added,2.6 points
same,Masking Component Intensity,[4]; 5 ppb added,0.6 points
same,Masking Component Intensity,[4]; 5 ppm added,3.5 points
same,Masking Component Intensity,[4]; 10 ppb added,1.3 points
same,Masking Component Intensity,[4]; 10 ppm added,3.9 points
same,Masking Component Intensity,[4]; 50 ppb added,1.9 points
same,Masking Component Intensity,[4]; 100 ppb added,2.1 points
same,Masking Component Intensity,[4]; 500 ppb added,2.6 points
"C=CC(C)(CCC=C(C)C)OC(=O)CCC (stereo not drawn) [Linalyl Butyrate, linalyl butyrate]",Masking Component Intensity,[1]; 1 ppb added,1.0 points
same,Masking Component Intensity,[1]; 1 ppm added,3.3 points
same,Masking Component Intensity,[1]; 5 ppm added,3.8 points
same,Masking Component Intensity,[1]; 10 ppb added,1.4 points
same,Masking Component Intensity,[1]; 10 ppt added,0.3 points
same,Masking Component Intensity,[1]; 50 ppb added,1.6 points
same,Masking Component Intensity,[1]; 100 ppb added,2.0 points
same,Masking Component Intensity,[1]; 100 ppt added,0.9 points
same,Masking Component Intensity,[1]; 500 ppb added,2.8 points
same,Masking Component Intensity,[2]; 1 ppb added,1.5 points
same,Masking Component Intensity,[2]; 1 ppm added,3.5 points
same,Masking Component Intensity,[2]; 5 ppm added,4.0 points
same,Masking Component Intensity,[2]; 10 ppb added,1.8 points
same,Masking Component Intensity,[2]; 10 ppt added,0.8 points
same,Masking Component Intensity,[2]; 50 ppb added,2.3 points
same,Masking Component Intensity,[2]; 100 ppb added,2.5 points
same,Masking Component Intensity,[2]; 100 ppt added,1.3 points
same,Masking Component Intensity,[2]; 500 ppb added,3.4 points
same,Masking Component Intensity,[3]; 1 ppb added,1.0 points
same,Masking Component Intensity,[3]; 1 ppm added,3.0 points
same,Masking Component Intensity,[3]; 5 ppm added,3.8 points
same,Masking Component Intensity,[3]; 10 ppb added,1.6 points
same,Masking Component Intensity,[3]; 10 ppt added,0.5 points
same,Masking Component Intensity,[3]; 50 ppb added,1.8 points
same,Masking Component Intensity,[3]; 100 ppb added,1.8 points
same,Masking Component Intensity,[3]; 100 ppt added,0.8 points
same,Masking Component Intensity,[3]; 500 ppb added,2.8 points
same,Masking Component Intensity,[4]; 1 ppb added,1.0 points
same,Masking Component Intensity,[4]; 1 ppm added,3.3 points
same,Masking Component Intensity,[4]; 5 ppm added,3.9 points
same,Masking Component Intensity,[4]; 10 ppb added,1.5 points
same,Masking Component Intensity,[4]; 10 ppt added,0.4 points
same,Masking Component Intensity,[4]; 50 ppb added,1.9 points
same,Masking Component Intensity,[4]; 100 ppb added,2.4 points
same,Masking Component Intensity,[4]; 100 ppt added,0.5 points
same,Masking Component Intensity,[4]; 500 ppb added,3.0 points
